{
  "source": "the supplement of paper PMC8728848",
  "binders": {"B1": {"name": "PX14351B-bth-512-36-512 (Bacteroides thetaiotaomicron) (protein)", "chain": "ASETQQWKTLEDTRSALMGVYGLTRAALADNNTHWICGDLRKGDFTVYKRSDLQAVSDNELNKPYDLLKKVSNWRRFYAVINAASVFMEKAPRTVELDRSYSEQNLKYDIAQVRALRAFAYFYMVRIWGDVPLVTYSYDNGTFPSMPRTDAQTVLSYAKAELLTAIEDLPYQYGTQTNLYYGSYGAQWQGKLFNKLSAYSVLAHICAWQGNYAEAETYSAFIIDHASEINAKYTSIADLTSETGLFYSNASVKGSRILGFNFAHNDNEATQSGHLEQLTLAYPLVQKSYPEIYISKDSLFSIFTNFDDLRFGIIDTIKYSSYYVQNLNEETPVFSKIKIIQDGSAKDNDFGVFGSSIVFTRLEDITLLRAEALCALNRSTEAVSYLNMIRTNRGLREVSFKKDFGNNRESLIAEIFEERRRELMGEGWRWYDLVRRQKLMKDNEAFLRLISSGGIYWPVSEDIITANSQIEQNEFWK"}},
  "test_in_all_cases": "glycan array binding signal (z-score within array); higher = stronger binding",
  "details_in_all_cases": "glycan notation: IUPAC condensed, linker removed",
  "key": {"[1]": {"target": "Gal(b1-3)GalNAc(a1-3)[Fuc(a1-2)]Gal(b1-4)Glc", "summary_of_the_method": "(§1)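 The binding signal is a Z-score computed within each array and averaged over linkers. Arrays of the same protein sequence at different concentrations or buffers were also averaged together. Data originate from 3228 arrays in the Consortium for Functional Glycomics database, kept only where the protein sequence was available.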"}, "Gal(b1-3)GalNAc(b1-3)Gal": {"target": "Gal(b1-3)GalNAc(b1-3)Gal", "summary_of_the_method": "as §1"}, "[2]": {"target": "Gal(b1-3)GalNAc(b1-3)Gal(a1-4)Gal(b1-4)Glc", "summary_of_the_method": "as §1"}, "[3]": {"target": "Gal(b1-3)GalNAc(b1-4)Gal(b1-4)Glc", "summary_of_the_method": "as §1"}, "[4]": {"target": "Gal(b1-3)GalNAc(b1-4)[Neu5Ac(a2-3)]Gal(b1-4)Glc", "summary_of_the_method": "as §1"}, "Gal(b1-3)GlcNAc": {"target": "Gal(b1-3)GlcNAc", "summary_of_the_method": "as §1"}, "[5]": {"target": "Gal(b1-3)GlcNAc(a1-3)Gal(b1-4)GlcNAc", "summary_of_the_method": "as §1"}, "Gal(b1-3)GlcNAc(b1-2)Man": {"target": "Gal(b1-3)GlcNAc(b1-2)Man", "summary_of_the_method": "as §1"}, "[6]": {"target": "Gal(b1-3)GlcNAc(b1-2)Man(a1-3)[Gal(b1-3)GlcNAc(b1-2)Man(a1-6)]Man(b1-4)GlcNAc(b1-4)GlcNAc", "summary_of_the_method": "as §1"}, "[7]": {"target": "Gal(b1-3)GlcNAc(b1-2)Man(a1-3)[Gal(b1-3)GlcNAc(b1-2)Man(a1-6)]Man(b1-4)GlcNAc(b1-4)[Fuc(a1-6)]GlcNAc", "summary_of_the_method": "as §1"}, "[8]": {"target": "Gal(b1-3)GlcNAc(b1-2)Man(a1-3)[GlcNAc(b1-4)][Gal(b1-3)GlcNAc(b1-2)Man(a1-6)]Man(b1-4)GlcNAc(b1-4)GlcNAc", "summary_of_the_method": "as §1"}, "[9]": {"target": "Gal(b1-3)GlcNAc(b1-2)[Gal(b1-3)GlcNAc(b1-6)]Man(a1-6)[Gal(b1-3)GlcNAc(b1-2)Man(a1-3)]Man(b1-4)GlcNAc(b1-4)GlcNAc", "summary_of_the_method": "as §1"}, "[10]": {"target": "Gal(b1-3)GlcNAc(b1-3)Gal(b1-4)Glc", "summary_of_the_method": "as §1"}, "[11]": {"target": "Gal(b1-3)GlcNAc(b1-3)Gal(b1-4)GlcNAc", "summary_of_the_method": "as §1"}, "[12]": {"target": "Gal(b1-3)GlcNAc(b1-3)Gal(b1-4)GlcNAc(b1-2)Man(a1-3)[Gal(b1-3)GlcNAc(b1-3)Gal(b1-4)GlcNAc(b1-2)Man(a1-6)]Man(b1-4)GlcNAc(b1-4)GlcNAc", "summary_of_the_method": "as §1"}, "[13]": {"target": "Gal(b1-3)GlcNAc(b1-3)Gal(b1-4)GlcNAc(b1-3)Gal(b1-4)GlcNAc(b1-2)[Gal(b1-3)GlcNAc(b1-3)Gal(b1-4)GlcNAc(b1-3)Gal(b1-4)GlcNAc(b1-6)]Man(a1-6)[Gal(b1-3)GlcNAc(b1-3)Gal(b1-4)GlcNAc(b1-3)Gal(b1-4)GlcNAc(b1-2)Man(a1-3)]Man(b1-4)GlcNAc(b1-4)[Fuc(a1-6)]GlcNAc", "summary_of_the_method": "as §1"}, "[14]": {"target": "Gal(b1-3)GlcNAc(b1-3)Gal(b1-4)GlcNAc(b1-6)[Gal(b1-3)GlcNAc(b1-3)]Gal(b1-4)Glc", "summary_of_the_method": "as §1"}, "[15]": {"target": "Gal(b1-3)GlcNAc(b1-3)Gal(b1-4)[Fuc(a1-3)]GlcNAc", "summary_of_the_method": "as §1"}, "[16]": {"target": "Gal(b1-3)GlcNAc(b1-3)Gal(b1-4)[Fuc(a1-3)]GlcNAc(b1-6)[Gal(b1-3)GlcNAc(b1-3)]Gal(b1-4)Glc", "summary_of_the_method": "as §1"}, "[17]": {"target": "Gal(b1-3)GlcNAc(b1-3)GalNAc", "summary_of_the_method": "as §1"}, "[18]": {"target": "Gal(b1-3)GlcNAc(b1-6)Gal(b1-4)GlcNAc", "summary_of_the_method": "as §1"}, "[19]": {"target": "Gal(b1-3)GlcNAc(b1-6)GalNAc", "summary_of_the_method": "as §1"}, "[20]": {"target": "Gal(b1-3)GlcNAc(b1-6)[Gal(b1-3)]GalNAc", "summary_of_the_method": "as §1"}, "Gal(b1-3)GlcNAc6S": {"target": "Gal(b1-3)GlcNAc6S", "summary_of_the_method": "as §1"}, "[21]": {"target": "Gal(b1-3)[Fuc(a1-4)]GlcNAc", "summary_of_the_method": "as §1"}, "[22]": {"target": "Gal(b1-3)[Fuc(a1-4)]GlcNAc(b1-2)Man", "summary_of_the_method": "as §1"}, "[23]": {"target": "Gal(b1-3)[Fuc(a1-4)]GlcNAc(b1-2)Man(a1-3)[Gal(b1-3)[Fuc(a1-4)]GlcNAc(b1-2)Man(a1-6)]Man(b1-4)GlcNAc(b1-4)[Fuc(a1-6)]GlcNAc", "summary_of_the_method": "as §1"}, "[24]": {"target": "Gal(b1-3)[Fuc(a1-4)]GlcNAc(b1-3)Gal(b1-3)[Fuc(a1-4)]GlcNAc", "summary_of_the_method": "as §1"}, "[25]": {"target": "Gal(b1-3)[Fuc(a1-4)]GlcNAc(b1-3)Gal(b1-4)[Fuc(a1-3)]GlcNAc", "summary_of_the_method": "as §1"}, "[26]": {"target": "Gal(b1-3)[Fuc(a1-4)]GlcNAc(b1-6)GalNAc", "summary_of_the_method": "as §1"}, "[27]": {"target": "Gal(b1-3)[GlcNAc(b1-6)]GalNAc", "summary_of_the_method": "as §1"}, "[28]": {"target": "Gal(b1-3)[Neu5Ac(a2-6)]GalNAc", "summary_of_the_method": "as §1"}, "[29]": {"target": "Gal(b1-3)[Neu5Ac(b2-6)]GalNAc", "summary_of_the_method": "as §1"}, "Gal(b1-4)Gal": {"target": "Gal(b1-4)Gal", "summary_of_the_method": "as §1"}, "[30]": {"target": "Gal(b1-4)GalNAc(a1-3)[Fuc(a1-2)]Gal(b1-4)GlcNAc", "summary_of_the_method": "as §1"}, "[31]": {"target": "Gal(b1-4)GalNAc(b1-3)[Fuc(a1-2)]Gal(b1-4)GlcNAc", "summary_of_the_method": "as §1"}, "Gal(b1-4)Glc": {"target": "Gal(b1-4)Glc", "summary_of_the_method": "as §1"}, "Gal(b1-4)Glc6S": {"target": "Gal(b1-4)Glc6S", "summary_of_the_method": "as §1"}},
  "note": "The list shows a part of the results.",
  "data": [
    {"binder": "B1", "values": [
      {"measurement": "glycan array binding signal (z-score)", "setting": "[1]", "result": -0.225},
      {"measurement": "glycan array binding signal (z-score)", "setting": "Gal(b1-3)GalNAc(b1-3)Gal", "result": -0.259},
      {"measurement": "glycan array binding signal (z-score)", "setting": "[2]", "result": -0.378},
      {"measurement": "glycan array binding signal (z-score)", "setting": "[3]", "result": -0.231},
      {"measurement": "glycan array binding signal (z-score)", "setting": "[4]", "result": -0.32},
      {"measurement": "glycan array binding signal (z-score)", "setting": "Gal(b1-3)GlcNAc", "result": 0.032},
      {"measurement": "glycan array binding signal (z-score)", "setting": "[5]", "result": -0.22},
      {"measurement": "glycan array binding signal (z-score)", "setting": "Gal(b1-3)GlcNAc(b1-2)Man", "result": -0.258},
      {"measurement": "glycan array binding signal (z-score)", "setting": "[6]", "result": -0.132},
      {"measurement": "glycan array binding signal (z-score)", "setting": "[7]", "result": -0.288},
      {"measurement": "glycan array binding signal (z-score)", "setting": "[8]", "result": -0.101},
      {"measurement": "glycan array binding signal (z-score)", "setting": "[9]", "result": -0.306},
      {"measurement": "glycan array binding signal (z-score)", "setting": "[10]", "result": -0.32},
      {"measurement": "glycan array binding signal (z-score)", "setting": "[11]", "result": 0.028},
      {"measurement": "glycan array binding signal (z-score)", "setting": "[12]", "result": -0.024},
      {"measurement": "glycan array binding signal (z-score)", "setting": "[13]", "result": 0.145},
      {"measurement": "glycan array binding signal (z-score)", "setting": "[14]", "result": -0.282},
      {"measurement": "glycan array binding signal (z-score)", "setting": "[15]", "result": -0.342},
      {"measurement": "glycan array binding signal (z-score)", "setting": "[16]", "result": -0.062},
      {"measurement": "glycan array binding signal (z-score)", "setting": "[17]", "result": -0.324},
      {"measurement": "glycan array binding signal (z-score)", "setting": "[18]", "result": -0.289},
      {"measurement": "glycan array binding signal (z-score)", "setting": "[19]", "result": -0.231},
      {"measurement": "glycan array binding signal (z-score)", "setting": "[20]", "result": -0.209},
      {"measurement": "glycan array binding signal (z-score)", "setting": "Gal(b1-3)GlcNAc6S", "result": -0.41},
      {"measurement": "glycan array binding signal (z-score)", "setting": "[21]", "result": -0.255},
      {"measurement": "glycan array binding signal (z-score)", "setting": "[22]", "result": -0.138},
      {"measurement": "glycan array binding signal (z-score)", "setting": "[23]", "result": -0.16},
      {"measurement": "glycan array binding signal (z-score)", "setting": "[24]", "result": -0.183},
      {"measurement": "glycan array binding signal (z-score)", "setting": "[25]", "result": -0.248},
      {"measurement": "glycan array binding signal (z-score)", "setting": "[26]", "result": -0.29},
      {"measurement": "glycan array binding signal (z-score)", "setting": "[27]", "result": 0.726},
      {"measurement": "glycan array binding signal (z-score)", "setting": "[28]", "result": -0.247},
      {"measurement": "glycan array binding signal (z-score)", "setting": "[29]", "result": -0.332},
      {"measurement": "glycan array binding signal (z-score)", "setting": "Gal(b1-4)Gal", "result": -0.272},
      {"measurement": "glycan array binding signal (z-score)", "setting": "[30]", "result": -0.157},
      {"measurement": "glycan array binding signal (z-score)", "setting": "[31]", "result": 1.32},
      {"measurement": "glycan array binding signal (z-score)", "setting": "Gal(b1-4)Glc", "result": -0.09},
      {"measurement": "glycan array binding signal (z-score)", "setting": "Gal(b1-4)Glc6S", "result": 0.199}
    ]}
  ]
}
